The other results are listed elsewhere or left out.
Key:
Assay in all cases: log2 fold change, soluble protein after heating vs DMSO (PISA); higher = thermal stabilisation; K562 cells, 10 uM, 30 min; active = over 0.2 and 3.5 SD of the protein, either way, in both replicates (recomputed)
[1] = compound: CC[C@@H]1C(=O)N(C)c2cnc(Nc3ccc(C(=O)NC4CCN(C)CC4)cc3OC)nc2N1C1CCCC1
Summary of the method: (§1)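 K562 cells at 2×10^6 cells/mL were treated with 10 μM compound for 30 min. Aliquots were heated for 3 min across 48°C-58°C, pooled, and extracted in PBS with 0.5% NP-40 at 4°C; soluble protein was the supernatant after 21,000xg for 90 min. Soluble protein was quantified by TMTpro 16plex LC-MS/MS with channel sums equalised, and reported as log2 fold change in thermal stability against DMSO controls, with values from duplicates.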

By UniProt entry, the sequences of proteins in these tests, tags left out. Where a name states a change or a piece, a line headed by the entry shows the natural chain unless it says otherwise.
UniProt P50454: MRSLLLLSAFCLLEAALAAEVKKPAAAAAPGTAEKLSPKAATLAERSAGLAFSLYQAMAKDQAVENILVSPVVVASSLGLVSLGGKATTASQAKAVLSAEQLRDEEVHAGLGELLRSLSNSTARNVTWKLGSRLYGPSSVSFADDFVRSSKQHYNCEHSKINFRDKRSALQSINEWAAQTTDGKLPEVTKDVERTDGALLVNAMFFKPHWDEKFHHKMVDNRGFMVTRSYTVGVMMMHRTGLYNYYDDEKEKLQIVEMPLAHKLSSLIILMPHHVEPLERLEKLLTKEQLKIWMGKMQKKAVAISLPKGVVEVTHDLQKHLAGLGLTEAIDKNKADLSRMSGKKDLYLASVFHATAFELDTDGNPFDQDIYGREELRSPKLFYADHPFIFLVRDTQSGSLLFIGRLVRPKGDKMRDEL
UniProt Q9NPR2: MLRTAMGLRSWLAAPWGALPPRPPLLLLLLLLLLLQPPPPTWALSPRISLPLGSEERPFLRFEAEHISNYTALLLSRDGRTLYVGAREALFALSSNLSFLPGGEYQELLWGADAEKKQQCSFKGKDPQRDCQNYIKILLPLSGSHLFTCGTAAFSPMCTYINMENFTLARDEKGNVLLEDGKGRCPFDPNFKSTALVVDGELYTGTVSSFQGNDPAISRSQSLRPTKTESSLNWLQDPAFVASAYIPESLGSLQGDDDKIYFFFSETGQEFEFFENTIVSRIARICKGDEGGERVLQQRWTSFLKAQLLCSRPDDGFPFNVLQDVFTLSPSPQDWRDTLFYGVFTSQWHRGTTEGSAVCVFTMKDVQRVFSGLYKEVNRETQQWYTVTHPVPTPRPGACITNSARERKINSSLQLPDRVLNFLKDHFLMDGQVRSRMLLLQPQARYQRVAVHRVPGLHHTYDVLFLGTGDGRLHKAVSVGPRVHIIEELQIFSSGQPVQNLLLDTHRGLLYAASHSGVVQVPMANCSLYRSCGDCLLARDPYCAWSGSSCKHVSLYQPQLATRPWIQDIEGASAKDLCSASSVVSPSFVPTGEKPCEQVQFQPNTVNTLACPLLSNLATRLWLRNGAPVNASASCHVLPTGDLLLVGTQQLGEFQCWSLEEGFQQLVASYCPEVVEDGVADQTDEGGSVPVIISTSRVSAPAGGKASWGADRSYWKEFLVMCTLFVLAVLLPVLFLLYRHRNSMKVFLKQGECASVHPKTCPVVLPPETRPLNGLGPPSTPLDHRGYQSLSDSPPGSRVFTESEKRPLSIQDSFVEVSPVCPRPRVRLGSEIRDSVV
UniProt Q9H9S3, whole entry, looked up: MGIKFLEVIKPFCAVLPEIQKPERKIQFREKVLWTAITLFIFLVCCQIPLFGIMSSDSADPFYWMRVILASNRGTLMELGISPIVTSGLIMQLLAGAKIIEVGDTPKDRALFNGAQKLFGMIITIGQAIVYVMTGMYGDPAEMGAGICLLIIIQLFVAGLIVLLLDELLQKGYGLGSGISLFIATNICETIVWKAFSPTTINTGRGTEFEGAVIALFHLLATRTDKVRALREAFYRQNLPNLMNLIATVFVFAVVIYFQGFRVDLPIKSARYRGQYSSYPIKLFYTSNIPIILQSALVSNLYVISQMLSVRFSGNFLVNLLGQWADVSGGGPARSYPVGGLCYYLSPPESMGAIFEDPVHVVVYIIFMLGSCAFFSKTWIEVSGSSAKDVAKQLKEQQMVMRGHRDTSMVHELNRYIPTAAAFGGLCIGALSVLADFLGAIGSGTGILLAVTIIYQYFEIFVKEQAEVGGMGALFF
UniProt Q96NB2: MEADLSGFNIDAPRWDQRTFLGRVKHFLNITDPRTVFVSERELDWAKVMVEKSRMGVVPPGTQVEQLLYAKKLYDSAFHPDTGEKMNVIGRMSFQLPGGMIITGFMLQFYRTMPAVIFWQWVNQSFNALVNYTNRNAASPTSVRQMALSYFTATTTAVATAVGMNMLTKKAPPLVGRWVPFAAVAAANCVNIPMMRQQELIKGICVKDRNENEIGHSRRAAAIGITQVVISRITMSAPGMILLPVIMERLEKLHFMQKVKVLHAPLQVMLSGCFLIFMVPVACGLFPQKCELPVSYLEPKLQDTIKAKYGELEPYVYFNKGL
UniProt Q92599: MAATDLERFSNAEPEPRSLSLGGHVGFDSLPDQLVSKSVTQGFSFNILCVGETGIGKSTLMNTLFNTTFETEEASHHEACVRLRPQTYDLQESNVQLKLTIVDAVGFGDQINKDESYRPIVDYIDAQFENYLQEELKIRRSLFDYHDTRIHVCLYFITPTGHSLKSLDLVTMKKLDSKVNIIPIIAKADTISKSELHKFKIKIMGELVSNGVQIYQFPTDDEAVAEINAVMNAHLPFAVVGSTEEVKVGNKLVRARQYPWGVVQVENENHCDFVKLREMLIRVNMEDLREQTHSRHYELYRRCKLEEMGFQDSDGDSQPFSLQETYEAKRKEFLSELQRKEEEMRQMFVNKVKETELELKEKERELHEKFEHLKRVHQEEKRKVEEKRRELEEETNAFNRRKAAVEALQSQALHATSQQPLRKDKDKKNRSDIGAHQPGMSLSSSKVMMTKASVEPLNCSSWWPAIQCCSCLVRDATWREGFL
UniProt Q9P0V9: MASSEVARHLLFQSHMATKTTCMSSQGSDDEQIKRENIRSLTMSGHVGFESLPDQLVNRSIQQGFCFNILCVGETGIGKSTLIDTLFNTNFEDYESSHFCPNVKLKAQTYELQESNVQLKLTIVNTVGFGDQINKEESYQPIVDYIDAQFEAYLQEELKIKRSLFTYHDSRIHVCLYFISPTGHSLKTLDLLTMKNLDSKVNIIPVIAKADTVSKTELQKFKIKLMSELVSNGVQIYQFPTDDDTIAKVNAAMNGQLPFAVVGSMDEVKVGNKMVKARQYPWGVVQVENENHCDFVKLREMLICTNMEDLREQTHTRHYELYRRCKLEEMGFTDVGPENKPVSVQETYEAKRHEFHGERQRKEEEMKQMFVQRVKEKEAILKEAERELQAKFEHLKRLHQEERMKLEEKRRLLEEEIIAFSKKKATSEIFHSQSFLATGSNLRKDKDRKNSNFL
UniProt P34897: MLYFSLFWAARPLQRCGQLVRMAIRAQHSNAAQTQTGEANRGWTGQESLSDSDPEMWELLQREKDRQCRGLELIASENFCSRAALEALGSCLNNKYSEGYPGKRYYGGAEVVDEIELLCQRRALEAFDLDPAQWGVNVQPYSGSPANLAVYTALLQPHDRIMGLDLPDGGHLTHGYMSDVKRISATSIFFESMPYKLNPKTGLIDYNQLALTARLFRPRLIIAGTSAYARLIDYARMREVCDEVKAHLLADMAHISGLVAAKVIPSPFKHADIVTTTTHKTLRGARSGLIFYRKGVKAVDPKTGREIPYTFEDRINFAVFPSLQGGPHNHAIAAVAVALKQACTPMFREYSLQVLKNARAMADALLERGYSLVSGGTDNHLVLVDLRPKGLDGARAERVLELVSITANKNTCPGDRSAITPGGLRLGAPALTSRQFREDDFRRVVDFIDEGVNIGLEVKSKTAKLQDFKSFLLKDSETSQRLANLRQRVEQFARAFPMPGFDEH
UniProt Q9NXA8: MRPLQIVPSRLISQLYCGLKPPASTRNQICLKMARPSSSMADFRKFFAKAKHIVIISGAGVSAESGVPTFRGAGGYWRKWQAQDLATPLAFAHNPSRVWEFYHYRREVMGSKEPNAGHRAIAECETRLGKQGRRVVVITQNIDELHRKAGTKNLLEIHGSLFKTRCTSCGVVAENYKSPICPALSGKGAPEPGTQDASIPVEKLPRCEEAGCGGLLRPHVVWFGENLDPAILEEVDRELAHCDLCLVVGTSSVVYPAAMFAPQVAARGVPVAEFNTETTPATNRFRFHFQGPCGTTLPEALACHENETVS
UniProt P34896: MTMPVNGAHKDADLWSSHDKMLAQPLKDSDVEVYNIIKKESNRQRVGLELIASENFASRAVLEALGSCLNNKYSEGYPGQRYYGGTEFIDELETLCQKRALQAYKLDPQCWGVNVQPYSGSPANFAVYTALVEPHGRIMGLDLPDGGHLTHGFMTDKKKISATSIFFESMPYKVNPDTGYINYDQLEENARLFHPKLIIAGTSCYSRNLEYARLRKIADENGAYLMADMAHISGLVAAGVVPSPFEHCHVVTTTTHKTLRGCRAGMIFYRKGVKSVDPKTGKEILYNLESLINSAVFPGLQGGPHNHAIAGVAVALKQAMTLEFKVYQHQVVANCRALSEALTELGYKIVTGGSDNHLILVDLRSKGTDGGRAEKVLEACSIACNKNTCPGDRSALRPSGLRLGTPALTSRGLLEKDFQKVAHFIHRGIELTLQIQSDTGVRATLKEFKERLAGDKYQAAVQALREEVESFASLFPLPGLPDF
UniProt Q9H9B4: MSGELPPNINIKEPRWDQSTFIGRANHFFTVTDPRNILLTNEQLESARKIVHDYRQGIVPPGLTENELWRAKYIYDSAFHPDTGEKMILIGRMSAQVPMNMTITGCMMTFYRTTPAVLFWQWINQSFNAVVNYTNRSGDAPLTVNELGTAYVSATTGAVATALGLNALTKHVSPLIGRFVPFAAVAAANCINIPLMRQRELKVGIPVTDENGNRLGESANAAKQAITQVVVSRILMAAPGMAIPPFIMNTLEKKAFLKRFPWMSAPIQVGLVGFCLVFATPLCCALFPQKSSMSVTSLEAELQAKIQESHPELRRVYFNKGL
UniProt O60239: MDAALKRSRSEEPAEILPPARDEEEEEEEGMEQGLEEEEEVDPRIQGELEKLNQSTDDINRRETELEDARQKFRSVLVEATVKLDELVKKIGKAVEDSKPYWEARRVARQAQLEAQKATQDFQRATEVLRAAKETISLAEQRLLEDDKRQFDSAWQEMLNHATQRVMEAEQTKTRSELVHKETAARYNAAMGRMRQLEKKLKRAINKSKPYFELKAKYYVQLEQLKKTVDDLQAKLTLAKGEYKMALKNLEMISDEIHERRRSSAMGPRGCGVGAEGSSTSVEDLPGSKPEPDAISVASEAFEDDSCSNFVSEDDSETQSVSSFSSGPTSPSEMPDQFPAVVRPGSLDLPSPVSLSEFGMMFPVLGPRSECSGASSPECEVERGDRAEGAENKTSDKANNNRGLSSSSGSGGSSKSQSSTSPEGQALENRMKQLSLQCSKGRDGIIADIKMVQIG
UniProt P60468, whole entry, looked up: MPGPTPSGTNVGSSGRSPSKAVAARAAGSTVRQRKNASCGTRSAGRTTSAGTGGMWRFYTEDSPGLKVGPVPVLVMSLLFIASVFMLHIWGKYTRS
UniProt Q86VZ5: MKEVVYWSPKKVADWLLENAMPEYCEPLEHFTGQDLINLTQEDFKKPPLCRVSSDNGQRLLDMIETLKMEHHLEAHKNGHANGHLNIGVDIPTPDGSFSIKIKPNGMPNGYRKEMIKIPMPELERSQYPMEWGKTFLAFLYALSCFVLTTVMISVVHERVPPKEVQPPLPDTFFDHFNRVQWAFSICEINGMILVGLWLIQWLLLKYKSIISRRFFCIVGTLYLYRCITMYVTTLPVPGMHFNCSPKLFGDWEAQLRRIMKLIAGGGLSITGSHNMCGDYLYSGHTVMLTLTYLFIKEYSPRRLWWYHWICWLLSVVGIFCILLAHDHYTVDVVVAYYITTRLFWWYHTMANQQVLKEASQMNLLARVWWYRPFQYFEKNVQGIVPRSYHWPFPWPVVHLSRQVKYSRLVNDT
UniProt Q9Y371: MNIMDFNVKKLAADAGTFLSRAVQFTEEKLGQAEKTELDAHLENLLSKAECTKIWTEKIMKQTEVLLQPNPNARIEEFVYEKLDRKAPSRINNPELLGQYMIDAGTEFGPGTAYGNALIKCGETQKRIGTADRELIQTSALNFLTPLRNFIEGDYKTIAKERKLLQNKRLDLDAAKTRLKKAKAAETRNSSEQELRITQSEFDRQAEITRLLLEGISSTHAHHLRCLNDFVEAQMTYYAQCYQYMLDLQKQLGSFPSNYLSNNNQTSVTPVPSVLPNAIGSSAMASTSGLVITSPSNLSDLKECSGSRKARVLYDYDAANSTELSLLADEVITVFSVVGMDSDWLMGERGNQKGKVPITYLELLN
UniProt P01008, whole entry, looked up: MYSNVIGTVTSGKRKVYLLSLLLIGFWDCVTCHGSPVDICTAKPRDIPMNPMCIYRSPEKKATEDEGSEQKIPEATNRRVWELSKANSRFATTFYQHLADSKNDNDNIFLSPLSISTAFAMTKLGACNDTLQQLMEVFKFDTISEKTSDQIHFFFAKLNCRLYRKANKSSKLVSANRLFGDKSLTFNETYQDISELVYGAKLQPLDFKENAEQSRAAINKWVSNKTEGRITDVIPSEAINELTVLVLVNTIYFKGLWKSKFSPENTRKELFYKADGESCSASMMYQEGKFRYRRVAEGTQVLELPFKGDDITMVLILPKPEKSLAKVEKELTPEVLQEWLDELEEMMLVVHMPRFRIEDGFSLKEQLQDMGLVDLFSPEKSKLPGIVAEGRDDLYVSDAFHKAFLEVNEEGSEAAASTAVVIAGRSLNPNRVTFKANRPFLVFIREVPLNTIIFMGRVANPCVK

volasertib = compound: CC[C@@H]1C(=O)N(C)c2cnc(Nc3ccc(C(=O)N[C@H]4CC[C@H](N5CCN(CC6CC6)CC5)CC4)cc3OC)nc2N1C(C)C [volasertib]
Summary of the method: as §1

[2] = compound: CC[C@H](C)N1C=C(C2=C(C=C(C=C21)C3=CN=C(C=C3)N4CCNCC4)C(=O)NCC5=C(C=C(NC5=O)C)C)C
Summary of the method: as §1

epoxomicin = compound: CC[C@H](C)[C@@H](C(=O)N[C@@H]([C@@H](C)O)C(=O)N[C@@H](CC(C)C)C(=O)[C@]1(CO1)C)NC(=O)[C@H]([C@@H](C)CC)N(C)C(=O)C [epoxomicin]
Summary of the method: as §1

[3] = compound: CCn1c(C(=O)N(C2CC2)C2CC2)cc2c3c(ncn3C)c(Nc3cc(C)n(C)n3)nc21
Summary of the method: as §1

[4] = compound: CCn1cc(-c2ccnc3[nH]c(-c4cccc(CN(C)C)c4)cc23)c(-c2ccc(NC(=O)N(C)C)cc2)n1
Summary of the method: as §1

[5] = compound: CN(C)CC(=O)Nc1ccc2[nH]c(=O)c3ccccc3c2c1
Summary of the method: as §1

rosiglitazone = compound: CN(CCOC1=CC=C(C=C1)C[C@H]2C(=O)NC(=O)S2)C3=CC=CC=N3 (racemic) [rosiglitazone]
Summary of the method: as §1

[6] = compound: CN1C2=C(C3=C1C(=O)N(N=C3)CC4=CC(=CC=C4)N)SC(=C2)S(=O)C
Summary of the method: as §1

[7] = compound: CN1CCC(CNc2ccc3ncc(-c4cccc(OC(F)(F)F)c4)n3n2)CC1
Summary of the method: as §1

saracatinib = compound: CN1CCN(CCOc2cc(OC3CCOCC3)c3c(Nc4c(Cl)ccc5c4OCO5)ncnc3c2)CC1 [saracatinib]
Summary of the method: as §1

sotrastaurin = compound: CN1CCN(c2nc(C3=C(c4c[nH]c5ccccc45)C(=O)NC3=O)c3ccccc3n2)CC1 [sotrastaurin]
Summary of the method: as §1

alvocidib = compound: CN1CC[C@H](c2c(O)cc(O)c3c(=O)cc(-c4ccccc4Cl)oc23)[C@H](O)C1 [alvocidib]
Summary of the method: as §1

Tubastatin A = compound: CN1CCc2c(c3ccccc3n2Cc2ccc(C(=O)NO)cc2)C1 [Tubastatin A]
Summary of the method: as §1

[8] = compound: CNC(=O)C1=CC=CC=C1NC2=NC(=NC=C2Cl)NC3=C(C=C(C=C3)N4CCOCC4)OC
Summary of the method: as §1

defactinib = compound: CNC(=O)c1ccc(Nc2ncc(C(F)(F)F)c(NCc3nccnc3N(C)S(C)(=O)=O)n2)cc1 [defactinib]
Summary of the method: as §1

rucaparib = compound: CNCc1ccc(-c2[nH]c3cc(F)cc4c3c2CCNC4=O)cc1 [rucaparib]
Summary of the method: as §1

[9] = compound: CNc1nc(-c2ccc3c(N)n[nH]c3c2)cc(N2C[C@@H](C(=O)NC3CCCCC3)CC[C@H]2C)n1
Summary of the method: as §1

encorafenib = compound: COC(=O)N[C@@H](C)CNc1nccc(-c2cn(C(C)C)nc2-c2cc(Cl)cc(NS(C)(=O)=O)c2F)n1 [encorafenib]
Summary of the method: as §1

[10] = compound: COC(=O)[C@H](CCSC)NC(=O)C1=C(C=C(C=C1)NC[C@H](CS)N)C2=CC=CC=C2
Summary of the method: as §1

Measured: log2 fold change

SERPINH1 (UniProt P50454)
inactive: [1] 0 | volasertib 0.005 | [2] 0.021 | epoxomicin 0.001 | [3] 0.011 | [4] -0.013 | [5] -0.015 | rosiglitazone 0.002 | [6] -0.006 | [7] 0.091 | saracatinib -0.02 | sotrastaurin -0.017 | alvocidib -0.029 | Tubastatin A -0.003 | [8] -0.019 | defactinib 0.005 | rucaparib -0.001 | [9] 0.013 | encorafenib 0.016 | [10] -0.024

SEMA4B (UniProt Q9NPR2)
inactive: [1] -0.034 | volasertib 0.042 | [2] -0.068 | epoxomicin 0.027 | [3] 0.013 | [4] -0.028 | [5] -0.079 | rosiglitazone -0.013 | [6] 0.009 | [7] -0.19 | saracatinib 0.133 | sotrastaurin -0.021 | alvocidib -0.058 | Tubastatin A -0.043 | [8] 0.111 | defactinib -0.085 | rucaparib -0.038 | [9] -0.002 | encorafenib 0.051 | [10] 0.061

SEC61A2 (UniProt Q9H9S3)
inactive: [1] 0.05 | volasertib 0.017 | [2] -0.063 | epoxomicin -0.023 | [3] -0.004 | [4] 0.011 | [5] 0.034 | rosiglitazone 0.026 | [6] -0.047 | [7] 0.079 | saracatinib 0.087 | sotrastaurin -0.014 | alvocidib -0.017 | Tubastatin A -0.022 | [8] 0.007 | defactinib -0.016 | rucaparib -0.09 | [9] -0.023 | encorafenib 0.011 | [10] -0.009

SFXN2 (UniProt Q96NB2)
inactive: [1] -0.005 | volasertib -0.016 | [2] 0.015 | epoxomicin 0.006 | [3] -0.031 | [4] -0.003 | [5] 0.069 | rosiglitazone -0.063 | [6] -0.107 | [7] -0.088 | saracatinib -0.016 | sotrastaurin 0.027 | alvocidib -0.006 | Tubastatin A 0.053 | [8] 0.008 | defactinib -0.038 | rucaparib -0.071 | [9] 0.006 | encorafenib -0.017 | [10] -0.057

SERPINF1 (UniProt P36955)
inactive: [1] -0.045 | volasertib 0.052 | [2] -0.184 | epoxomicin -0.06 | [3] 0.118 | [4] 0.032 | [5] -0.134 | rosiglitazone 0.044 | [6] 0.026 | [7] 0.21 | saracatinib 0.023 | sotrastaurin 0.197 | alvocidib -0.021 | Tubastatin A -0.015 | [8] 0.133 | defactinib -0.026 | rucaparib -0.033 | [9] -0.111 | encorafenib -0.164 | [10] 0.058

SEPTIN8 (UniProt Q92599)
inactive: [1] 0.033 | volasertib 0.025 | [2] -0.014 | epoxomicin 0.006 | [3] 0.019 | [4] 0.007 | [5] 0.001 | rosiglitazone -0.011 | [6] -0.109 | [7] 0.015 | saracatinib 0.039 | sotrastaurin 0.01 | alvocidib -0.022 | Tubastatin A -0.028 | [8] -0.013 | defactinib -0.03 | rucaparib -0.058 | [9] 0.008 | encorafenib -0.005 | [10] -0.013

SEPTIN10 isoform 2 (UniProt Q9P0V9)
inactive: [1] -0.026 | volasertib 0.102 | [2] -0.078 | epoxomicin -0.065 | [3] 0.006 | [4] 0.043 | [5] -0.066 | rosiglitazone 0.003 | [6] -0.078 | [7] -0.018 | saracatinib 0.059 | sotrastaurin -0.01 | alvocidib 0.102 | Tubastatin A -0.1 | [8] -0.032 | defactinib -0.048 | rucaparib -0.06 | [9] 0.02 | encorafenib -0.069 | [10] 0.046

SHMT2 (UniProt P34897)
inactive: [1] 0.009 | volasertib 0.047 | [2] -0.03 | epoxomicin -0.006 | [3] 0.016 | [4] 0.01 | [5] -0.029 | rosiglitazone -0.007 | [6] -0.033 | [7] 0.047 | saracatinib 0.015 | sotrastaurin 0.034 | alvocidib 0.003 | Tubastatin A -0.031 | [8] 0.009 | defactinib -0.011 | rucaparib -0.036 | [9] -0.062 | encorafenib -0.024 | [10] 0.015

SIRT5 (UniProt Q9NXA8)
inactive: [1] -0.019 | volasertib -0.083 | [2] 0.009 | epoxomicin -0.009 | [3] 0.015 | [4] -0.063 | [5] -0.06 | rosiglitazone -0.038 | [6] -0.043 | [7] 0.059 | saracatinib 0.051 | sotrastaurin -0.068 | alvocidib 0.021 | Tubastatin A -0.002 | [8] -0.015 | defactinib -0.043 | rucaparib 0.041 | [9] 0.009 | encorafenib -0.115 | [10] -0.083

SHMT1 (UniProt P34896)
inactive: [1] 0.056 | volasertib 0.016 | [2] -0.026 | epoxomicin -0.024 | [3] 0.018 | [4] -0.016 | [5] -0.018 | rosiglitazone -0.002 | [6] -0.034 | [7] -0.051 | saracatinib 0.042 | sotrastaurin -0.01 | alvocidib -0.013 | Tubastatin A -0.011 | [8] -0.028 | defactinib -0.026 | rucaparib -0.045 | [9] -0.005 | encorafenib 0.003 | [10] -0.052

SFXN1 (UniProt Q9H9B4)
inactive: [1] -0.062 | volasertib 0.012 | [2] -0.023 | epoxomicin 0 | [3] 0.009 | [4] -0.009 | [5] 0.027 | rosiglitazone 0.028 | [6] -0.059 | [7] -0.053 | saracatinib 0.028 | sotrastaurin -0.026 | alvocidib 0.001 | Tubastatin A -0.017 | [8] -0.022 | defactinib -0.021 | rucaparib -0.02 | [9] -0.028 | encorafenib 0.011 | [10] 0.011

SH3BP5 (UniProt O60239)
inactive: [1] 0.016 | volasertib -0.023 | [2] 0.077 | epoxomicin 0.086 | [3] -0.012 | [4] -0.033 | [5] 0.023 | rosiglitazone 0.041 | [6] -0.153 | [7] 0 | saracatinib 0.051 | sotrastaurin 0.065 | alvocidib 0.083 | Tubastatin A -0.016 | [8] 0.067 | defactinib -0.012 | rucaparib -0.023 | [9] -0.068 | encorafenib 0.011 | [10] 0.018

Copied from the listing (2 entries):
SIRT5 (UniProt Q9NXA8)
inactive: [1] -0.019 | volasertib -0.083 | [2] 0.009 | epoxomicin -0.009 | [3] 0.015 | [4] -0.063 | [5] -0.06 | rosiglitazone -0.038 | [6] -0.043 | [7] 0.059 | saracatinib 0.051 | sotrastaurin -0.068 | alvocidib 0.021 | Tubastatin A -0.002 | [8] -0.015 | defactinib -0.043 | rucaparib 0.041 | [9] 0.009 | encorafenib -0.115 | [10] -0.083

SHMT1 (UniProt P34896)
inactive: [1] 0.056 | volasertib 0.016 | [2] -0.026 | epoxomicin -0.024 | [3] 0.018 | [4] -0.016 | [5] -0.018 | rosiglitazone -0.002 | [6] -0.034 | [7] -0.051 | saracatinib 0.042 | sotrastaurin -0.01 | alvocidib -0.013 | Tubastatin A -0.011 | [8] -0.028 | defactinib -0.026 | rucaparib -0.045 | [9] -0.005 | encorafenib 0.003 | [10] -0.052

(listing goes on)

SEC61B (UniProt P60468)
inactive: [1] 0.044 | volasertib 0.14 | [2] -0.067 | epoxomicin 0.019 | [3] 0.05 | [4] 0.036 | [5] -0.028 | rosiglitazone -0.033 | [6] 0.006 | [7] 0.026 | saracatinib 0.017 | sotrastaurin 0.066 | alvocidib 0.051 | Tubastatin A -0.045 | [8] 0.04 | defactinib 0.006 | rucaparib 0.014 | [9] -0.032 | encorafenib -0.01 | [10] 0.027

SGMS1 (UniProt Q86VZ5)
inactive: [1] -0.007 | volasertib -0.049 | [2] -0.009 | epoxomicin 0 | [3] 0.003 | [4] 0.011 | [5] -0.002 | rosiglitazone 0.009 | [6] -0.074 | [7] 0.12 | saracatinib 0.045 | sotrastaurin 0.017 | alvocidib 0.011 | Tubastatin A -0.024 | [8] 0.007 | defactinib -0.031 | rucaparib -0.016 | [9] -0.019 | encorafenib -0.014 | [10] -0.008

SH3GLB1 isoform 2 (UniProt Q9Y371)
inactive: [1] -0.181 | volasertib -0.277 | [2] 0.141 | epoxomicin -0.021 | [3] -0.056 | [4] -0.065 | [5] -0.045 | rosiglitazone 0.041 | [6] 0.082 | [7] -0.148 | saracatinib -0.15 | sotrastaurin -0.139 | alvocidib -0.083 | Tubastatin A 0.057 | [8] 0.029 | defactinib -0.076 | rucaparib 0.061 | [9] 0.011 | encorafenib 0.132 | [10] 0.031

SERPINC1 (UniProt P01008)
inactive: [1] -0.003 | volasertib 0.101 | [2] -0.048 | epoxomicin -0.54 | [3] 0.037 | [4] 0.101 | [5] -0.006 | rosiglitazone 0.028 | [6] 0.155 | [7] 0.049 | saracatinib 0.305 | sotrastaurin 0.277 | alvocidib 0.125 | Tubastatin A -0.175 | [8] 0.179 | defactinib -0.053 | rucaparib -0.16 | [9] 0.032 | encorafenib -0.027 | [10] 0.19

Reference: the supplement of paper PMC10849652
